Results are given in words; binding and its absence hold for the method and conditions named. Binding seen in cells or lysates may run through a third protein. Some entries that bind do so weakly or less than the wild type.

The chains behind the UniProt entries cited, without tags or fusion partners. Residues count along the entry.
UniProt O88900: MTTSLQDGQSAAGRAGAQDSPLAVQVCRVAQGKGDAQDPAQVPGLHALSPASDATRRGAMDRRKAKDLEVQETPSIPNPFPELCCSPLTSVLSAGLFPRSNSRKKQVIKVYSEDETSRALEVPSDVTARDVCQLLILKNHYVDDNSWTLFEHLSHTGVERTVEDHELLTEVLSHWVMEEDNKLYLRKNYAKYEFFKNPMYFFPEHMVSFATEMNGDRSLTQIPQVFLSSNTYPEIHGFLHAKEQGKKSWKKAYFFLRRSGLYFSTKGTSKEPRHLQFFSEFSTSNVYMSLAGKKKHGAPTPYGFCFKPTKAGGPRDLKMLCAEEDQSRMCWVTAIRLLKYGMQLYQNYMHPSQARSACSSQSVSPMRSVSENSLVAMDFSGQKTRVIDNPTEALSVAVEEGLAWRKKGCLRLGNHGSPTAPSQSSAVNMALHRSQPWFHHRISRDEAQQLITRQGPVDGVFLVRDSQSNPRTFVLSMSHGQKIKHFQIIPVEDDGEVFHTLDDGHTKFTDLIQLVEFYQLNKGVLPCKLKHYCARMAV
UniProt P06213, residues 28-1382: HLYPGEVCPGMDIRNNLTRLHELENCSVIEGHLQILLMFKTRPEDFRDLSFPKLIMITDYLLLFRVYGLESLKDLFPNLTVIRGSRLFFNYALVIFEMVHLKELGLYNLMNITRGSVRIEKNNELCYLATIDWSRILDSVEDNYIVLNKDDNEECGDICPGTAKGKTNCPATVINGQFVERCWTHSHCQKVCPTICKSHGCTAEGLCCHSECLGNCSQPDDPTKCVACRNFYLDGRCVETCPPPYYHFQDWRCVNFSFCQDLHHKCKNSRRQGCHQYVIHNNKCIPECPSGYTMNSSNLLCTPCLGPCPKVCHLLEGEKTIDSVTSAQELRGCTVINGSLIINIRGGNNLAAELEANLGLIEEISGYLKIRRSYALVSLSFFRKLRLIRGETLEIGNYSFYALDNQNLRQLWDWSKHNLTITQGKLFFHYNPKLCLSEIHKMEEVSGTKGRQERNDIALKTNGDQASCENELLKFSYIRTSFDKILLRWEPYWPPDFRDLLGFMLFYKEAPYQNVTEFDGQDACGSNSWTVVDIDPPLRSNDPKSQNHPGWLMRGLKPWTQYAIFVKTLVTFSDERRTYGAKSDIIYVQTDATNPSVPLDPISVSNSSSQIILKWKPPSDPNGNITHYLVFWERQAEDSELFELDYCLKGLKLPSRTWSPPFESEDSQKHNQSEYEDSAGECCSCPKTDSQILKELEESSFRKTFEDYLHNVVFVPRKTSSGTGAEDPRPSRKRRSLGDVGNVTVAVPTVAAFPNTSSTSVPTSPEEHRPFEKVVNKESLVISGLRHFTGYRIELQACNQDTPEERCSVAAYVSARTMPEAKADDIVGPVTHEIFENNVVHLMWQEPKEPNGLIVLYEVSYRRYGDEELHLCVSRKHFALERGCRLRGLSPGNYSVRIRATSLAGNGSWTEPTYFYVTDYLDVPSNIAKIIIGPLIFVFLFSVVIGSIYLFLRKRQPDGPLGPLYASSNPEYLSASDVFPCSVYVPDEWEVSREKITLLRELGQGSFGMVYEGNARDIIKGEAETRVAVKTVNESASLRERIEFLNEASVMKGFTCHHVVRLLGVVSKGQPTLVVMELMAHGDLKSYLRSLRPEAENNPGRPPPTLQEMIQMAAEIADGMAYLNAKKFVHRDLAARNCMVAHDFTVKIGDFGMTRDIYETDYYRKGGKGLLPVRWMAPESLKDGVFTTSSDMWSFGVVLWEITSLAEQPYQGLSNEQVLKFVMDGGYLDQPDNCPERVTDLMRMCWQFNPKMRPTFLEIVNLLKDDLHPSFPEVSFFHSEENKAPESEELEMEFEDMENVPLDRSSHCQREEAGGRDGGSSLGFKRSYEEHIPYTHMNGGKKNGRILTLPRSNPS

Consider one substance from article PMC5715071.

Assay [1] addresses Growth factor receptor-bound protein 14 fused to YFP (Grb14-YFP) (UniProt O88900). Put plainly: co-IP; wheat-germ-lectin partially purified IR-Rluc from control or insulin-stimulated cells preincubated 20 min with DMSO or compounds, Grb14-YFP extract added for 40 min; anti-GFP antibody and protein G-agarose 1 h at room temperature; blot with anti-IR; only the binder purified.
For assay [2] the target is unchanged. The experiment in a line: FRET or BRET; a-cellular BRET; IR-Rluc partially purified on wheat-germ lectin Sepharose from HEK-293T cells stimulated or not with 100 nM insulin, preincubated 20 min at room temperature with compound or DMSO, then extract of Grb14-YFP cells for 40 min, coelenterazine 2.5 µM (Protocol 1); Protocol 2: Grb14-YFP extract preincubated with IR 40 min before C8; Protocol 3: all added simultaneously; only the binder purified.

In the case of “Insulin receptor fused to Renilla luciferase (IR-Rluc) (from UniProt P06213 28-1382)”, the binding result in assay [1] and in assay [2] was “binds” in each case.
